Hit rate of the full screen: of about 2,000 compounds, fewer than 10 were called active.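 The calls were made as follows: active = growth inhibition of at least 75% in every replicate, which also brings the mean inhibition to 75% or more; inconclusive = mean inhibition 75% or more but some replicate under 75%; inactive = the rest.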 Some of the results follow.
Test: reduced viability of yeast carrying PfHsp90 – S. cerevisiae, BacTiter-Glo luminescence, antimalarial PfHsp90 inhibitor project, primary screen (AID 504594);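 also: 0% = DMSO neutral control wells and 100% = 20 µM radicicol control wells; higher value means stronger growth inhibition because the sign is flipped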
Settings: S. cerevisiae expressing PfHsp90, BacTiter-Glo growth, 48 h; at 9.4 µM; active compounds read high

Question: Which growth inhibition does the source give for `N=c1nc(N2CCCCC2)cc(N)n1O` here?
Answer: inactive: 12.2%

Question: With `CC(=O)Oc1ccc(C(c2ccc(OC(C)=O)cc2)c2ccccn2)cc1` as the molecule, how does the growth inhibition read?
Answer: inactive: -5.45%

Question: Which growth inhibition does the source give for `O=C(O)CCC(=O)c1ccc(-c2ccccc2)cc1` here?
Answer: inactive: -5.52%

Question: Which growth inhibition does the source give for `O=C1c2cccc3cccc(c23)C(=O)N1c1ccccn1` here?
Answer: inactive: -0.513%

Question: Which growth inhibition does the source give for `COc1ccc(/C=C/C(=O)c2cc3cccc(OC)c3oc2=O)cc1` here?
Answer: inactive: -3.13%

Question: With `CCN(CC)Cc1c[nH]c2c(C(=O)OC)cccc12` as the molecule, how does the growth inhibition read?
Answer: inactive: -2.96%

Question: With `CN1CCN2c3ccccc3Cc3ccccc3C2C1` (stereo not given) as the molecule, how does the growth inhibition read?
Answer: inactive: 4.08%

Question: Which growth inhibition does the source give for `O=C(O)c1cnccn1` here?
Answer: inactive: -2.57%

Question: For `COc1ccc(-c2[nH]ncc2CN(C)C(C)c2ccon2)c(OC)c1` (stereo not given), which growth inhibition is on record?
Answer: inactive: -11.3%

Question: With `C=CCc1ccc(OCC(O)COc2ccc(CC=C)cc2OC)c(OC)c1` as the molecule, how does the growth inhibition read?
Answer: inactive: -20%

Question: With `Cc1ncoc1C(=O)N1CCCC(C(=O)c2ccc(-c3ccccc3)c(F)c2)C1` (stereo not given) as the molecule, how does the growth inhibition read?
Answer: inactive: -23%

Question: Which growth inhibition does the source give for `CCSC(=O)CCCCCCCCCCCO` here?
Answer: inactive: 2.01%

Question: With `CCOc1ccc(C(=O)NC(C)C2COc3ccccc3O2)cc1` (stereo not given) as the molecule, how does the growth inhibition read?
Answer: inactive: 6.54%

Question: For `C[C@H](CCC(=O)O)[C@H]1CC[C@H]2[C@@H]3C(=O)C[C@@H]4CC(=O)CC[C@]4(C)[C@H]3CC(=O)[C@]12C`, which growth inhibition is on record?
Answer: inactive: 8.97%

Question: For `Cc1nc2sccn2c(=O)c1CCN1CCC(=C(c2ccc(F)cc2)c2ccc(F)cc2)CC1`, which growth inhibition is on record?
Answer: inactive: 3.73%

Question: Which growth inhibition does the source give for `Cc1ccc2[nH]c3c(c2c1)CCNC3=O` here?
Answer: inactive: -8.37%

Question: For `CC1(C)CC(=O)C2=C(C1)c1c(ccc3ccccc13)NC2c1ccco1` (stereo not given), which growth inhibition is on record?
Answer: inactive: -5.44%

Question: Which growth inhibition does the source give for `N=c1ccn(CC(=O)NC(N)=O)c2ccccc12` here?
Answer: inactive: -0.411%

Question: For `OC(CCN1CCCCC1)(c1ccccc1)c1ccccc1`, which growth inhibition is on record?
Answer: inactive: 6.58%

Question: For `CC(=O)[C@H]1[C@H](C#N)C[C@H]2[C@@H]3CC=C4C[C@@H](O)CC[C@]4(C)[C@H]3CC[C@@]21C`, which growth inhibition is on record?
Answer: inactive: -7.44%

Question: For `COc1ccc(C(CC(=O)N2CCOCC2)C(C)C)cc1` (stereo not given), which growth inhibition is on record?
Answer: inactive: 0.0597%

Question: Which growth inhibition does the source give for `COc1c2occc2c(OC)c2c(=O)cc(C(F)(F)C(F)(F)F)oc12` here?
Answer: inactive: -5.37%

Question: Which growth inhibition does the source give for `CCOc1ccc2[nH]c3c(=O)n(CCc4ccc(OC)cc4)cnc3c2c1` here?
Answer: inactive: -11.5%

Question: Which growth inhibition does the source give for `COc1ccc2[nH]cc(C3N4CC5(C)CN3CC(C)(C4)C5=O)c2c1` (stereo not given) here?
Answer: inactive: 3.6%

Question: With `Cc1ccccc1C(=O)NNc1ncnc2c1cnn2C` as the molecule, how does the growth inhibition read?
Answer: inactive: 6.23%

Question: Which growth inhibition does the source give for `CC(C)NNC(=O)c1ccncc1` here?
Answer: inactive: -0.426%

Question: With `CC(=O)N(CCC1(C(C)C)CCOC(C)(C)C1)Cc1ccco1` (stereo not given) as the molecule, how does the growth inhibition read?
Answer: inactive: 8.32%

Question: With `CC(=O)N=c1sc(S(N)(=O)=O)nn1C` as the molecule, how does the growth inhibition read?
Answer: inactive: -2.22%

Question: Which growth inhibition does the source give for `Cc1cc(C)c(NC(=O)NC(=O)C(Cl)(Cl)Cl)c(C)c1` here?
Answer: inactive: 2.99%

Question: With `COc1ccc(NC(=O)C2OC3OC(C)(C)OC3C3OC(C)(C)OC23)cc1` (stereo not given) as the molecule, how does the growth inhibition read?
Answer: inactive: 2.54%

Question: Which growth inhibition does the source give for `O=c1c2ccccc2nc2n1CCCN2` here?
Answer: inactive: 6.84%

Question: Which growth inhibition does the source give for `CC(=O)Oc1ccc(C(=O)O)cc1OC(C)=O` here?
Answer: inactive: -3.21%

Question: With `CCOC(=O)C1=C(C)N[C@@]2(O)c3ccccc3C(=O)[C@@]12O` as the molecule, how does the growth inhibition read?
Answer: inactive: -0.766%

Question: For `Cn1cc(CN2CCC(C(=O)N3CCCCC3)CC2)c(-c2ccccc2F)n1`, which growth inhibition is on record?
Answer: inactive: 9.47%

Question: Which growth inhibition does the source give for `CCOc1ccc(CC2CCC(=O)NC2=O)cc1` (stereo not given) here?
Answer: inactive: 16.2%

Question: For `O=C(COc1cc(O)c2c(=O)c3ccccc3oc2c1)OCc1ccccc1`, which growth inhibition is on record?
Answer: inactive: 4.36%

Question: For `Cc1ccc(C2=NOC(=O)/C2=C\C=C\c2ccccc2)cc1`, which growth inhibition is on record?
Answer: inactive: 14.3%

Question: With `CC(C)(C)OC(=O)COc1cc(OCC(=O)OC(C)(C)C)c2c(=O)cc(-c3ccccc3)oc2c1` as the molecule, how does the growth inhibition read?
Answer: inactive: -8.59%

Question: Which growth inhibition does the source give for `CC(C)=CCCC1=CCC2C(=O)NNC(=O)C2C1` (stereo not given) here?
Answer: inactive: -3.66%

Question: With `COc1ccc(C(=O)Nc2nc3ccccc3c(=O)[nH]2)cc1` as the molecule, how does the growth inhibition read?
Answer: inactive: 11.1%

Question: Which growth inhibition does the source give for `Cc1nc2c(c3c1[nH]c1ccccc13)C(=O)CC(C)(C)C2` here?
Answer: inactive: -21.2%

Question: For `CN(C)c1cc(NC(=O)CN2CCOCC2)c2ccccc2n1`, which growth inhibition is on record?
Answer: inactive: -17.6%

Question: Which growth inhibition does the source give for `CC(C)c1cc(=O)oc2c3c4c(cc12)CCCN4CCC3` here?
Answer: inactive: 7.18%

Question: With `CSCC[C@H](NC(=O)OC(C)(C)C)C(=O)N1CCC(C(=O)N[C@@H](C)C(=O)O)CC1` as the molecule, how does the growth inhibition read?
Answer: inactive: -11.6%

Question: For `COc1cc2c(cc1O)CCN(C(=O)c1ccco1)C2C` (stereo not given), which growth inhibition is on record?
Answer: inactive: 3.62%

Question: Which growth inhibition does the source give for `COc1ccc(/C=C2\CC/C(=C\c3ccc(OC)c(OC)c3)C2=O)cc1OC` here?
Answer: inactive: -15.8%

Question: With `CCC(C)NCCOc1ccccc1C` (stereo not given) as the molecule, how does the growth inhibition read?
Answer: inactive: -2.12%

Question: With `NNC(=O)c1ccncc1` as the molecule, how does the growth inhibition read?
Answer: inactive: 10.4%

Question: With `COc1cc(NC(=S)NC(=O)c2cccs2)ccc1NC(=O)C(C)C` as the molecule, how does the growth inhibition read?
Answer: inactive: 0.319%

Question: With `COc1ccccc1OS(=O)(=O)c1ccc(NC(C)=O)cc1` as the molecule, how does the growth inhibition read?
Answer: inactive: -3.86%
